Here are results for one substance from PMC12059206.

This test concerns the target T1, GST-fusion SENP1 protein (UniProt Q9P0U3).
T1 sequence: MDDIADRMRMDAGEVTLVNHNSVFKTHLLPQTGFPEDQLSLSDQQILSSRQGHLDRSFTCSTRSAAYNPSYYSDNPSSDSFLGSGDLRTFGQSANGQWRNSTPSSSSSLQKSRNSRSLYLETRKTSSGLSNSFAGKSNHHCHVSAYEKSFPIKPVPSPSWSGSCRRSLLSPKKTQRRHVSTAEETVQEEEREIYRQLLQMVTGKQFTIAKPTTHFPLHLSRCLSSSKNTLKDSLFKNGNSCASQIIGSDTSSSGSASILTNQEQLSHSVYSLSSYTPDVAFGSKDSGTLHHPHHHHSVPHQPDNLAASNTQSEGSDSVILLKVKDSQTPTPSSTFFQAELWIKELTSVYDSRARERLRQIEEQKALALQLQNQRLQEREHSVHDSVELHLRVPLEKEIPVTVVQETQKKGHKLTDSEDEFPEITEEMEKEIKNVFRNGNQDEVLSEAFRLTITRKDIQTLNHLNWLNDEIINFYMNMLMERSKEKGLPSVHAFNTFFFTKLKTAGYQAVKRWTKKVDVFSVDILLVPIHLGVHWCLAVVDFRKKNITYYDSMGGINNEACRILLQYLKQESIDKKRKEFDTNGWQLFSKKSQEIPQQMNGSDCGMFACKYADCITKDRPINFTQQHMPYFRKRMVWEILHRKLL
The test is described as follows: pull-down; GST-pulldown in vitro with purified MEF2C-FLAG and GST-tagged SENP1; GST as control; both purified.

No constants are given. Whether binding was seen depends on the method and setting. Binding can be weak; no strength is given. Tags and fused reporters may be left off the sequences shown.

In the case of MEF2C-FLAG fusion protein, the binding entry is listed as “binds”.
